Results are given in words; binding and its absence hold for the method and conditions named. In cells and extracts the contact can be indirect. Some binding calls cover weakened binding; strength is not graded here.
T1: CD81 (endogenous, human cells) (human (endogenous in Daudi, Ramos, Molt-4, 293T, Huh-7 and other cells)) (UniProt P60033)
T1 sequence: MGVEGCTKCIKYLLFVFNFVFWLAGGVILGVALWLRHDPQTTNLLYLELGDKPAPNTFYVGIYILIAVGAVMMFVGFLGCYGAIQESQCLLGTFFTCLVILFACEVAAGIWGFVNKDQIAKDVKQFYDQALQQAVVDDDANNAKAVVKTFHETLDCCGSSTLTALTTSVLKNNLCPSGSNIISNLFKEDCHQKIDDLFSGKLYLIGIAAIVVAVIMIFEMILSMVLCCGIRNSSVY


Target: T1, CD81 (endogenous, human cells) (human (endogenous in Daudi, Ramos, Molt-4, 293T, Huh-7 and other cells))
Test: co-IP; surface-biotinylated cells lysed in Bj/EDTA (1% Brij97, 2 mM EDTA), immunoprecipitation with mAbs on rabbit anti-mouse protein A beads 2 h at 4°C, blot with HRP-conjugated streptavidin

Binder | binding
EWI-2 (endogenous) (protein, UniProt Q969P0 28-613) REVLVPEGPLYRVAGTAVSISCNVTGYEGPAQQNFEWFLYRPEAPDTALGIVSTKDTQFSYAVFKSRVVAGEVQVQRLQGDAVVLKIARLQAQDAGIYECHTPSTDTRYLGSYSGKVELRVLPDVLQVSAAPPGPRGRQAPTSPPRMTVHEGQELALGCLARTSTQKHTHLAVSFGRSVPEAPVGRSTLQEVVGIRSDLAVEAGAPYAERLAAGELRLGKEGTDRYRMVVGGAQAGDAGTYHCTAAEWIQDPDGSWAQIAEKRAVLAHVDVQTLSSQLAVTVGPGERRIGPGEPLELLCNVSGALPPAGRHAAYSVGWEMAPAGAPGPGRLVAQLDTEGVGSLGPGYEGRHIAMEKVASRTYRLRLEAARPGDAGTYRCLAKAYVRGSGTRLREAASARSRPLPVHVREEGVVLEAVAWLAGGTVYRGETASLLCNISVRGGPPGLRLAASWWVERPEDGELSSVPAQLVGGVGQDGVAELGVRPGGGPVSVELVGPRSHRLRLHSLGPEDEGVYHCAPSAWVQHADYSWYQAGSARSGPVTVYPYMHALDTLFVPLLVGTGVALVTGATVLGTITCCFMKRLRKR | binds
EWI-F (endogenous) (protein, UniProt Q9P2B2 26-879) VPTATLVRVVGTELVIPCNVSDYDGPSEQNFDWSFSSLGSSFVELASTWEVGFPAQLYQERLQRGEILLRRTANDAVELHIKNVQPSDQGHYKCSTPSTDATVQGNYEDTVQVKVLADSLHVGPSARPPPSLSLREGEPFELRCTAASASPLHTHLALLWEVHRGPARRSVLALTHEGRFHPGLGYEQRYHSGDVRLDTVGSDAYRLSVSRALSADQGSYRCIVSEWIAEQGNWQEIQEKAVEVATVVIQPSVLRAAVPKNVSVAEGKELDLTCNITTDRADDVRPEVTWSFSRMPDSTLPGSRVLARLDRDSLVHSSPHVALSHVDARSYHLLVRDVSKENSGYYYCHVSLWAPGHNRSWHKVAEAVSSPAGVGVTWLEPDYQVYLNASKVPGFADDPTELACRVVDTKSGEANVRFTVSWYYRMNRRSDNVVTSELLAVMDGDWTLKYGERSKQRAQDGDFIFSKEHTDTFNFRIQRTTEEDRGNYYCVVSAWTKQRNNSWVKSKDVFSKPVNIFWALEDSVLVVKARQPKPFFAAGNTFEMTCKVSSKNIKSPRYSVLIMAEKPVGDLSSPNETKYIISLDQDSVVKLENWTDASRVDGVVLEKVQEDEFRYRMYQTQVSDAGLYRCMVTAWSPVRGSLWREAATSLSNPIEIDFQTSGPIFNASVHSDTPSVIRGDLIKLFCIITVEGAALDPDDMAFDVSWFAVHSFGLDKAPVLLSSLDRKGIVTTSRRDWKSDLSLERVSVLEFLLQVHGSEDQDFGNYYCSVTPWVKSPTGSWQKEAEIHSKPVFITVKMDVLNAFKYPLLIGVGLSTVIGLLSCLIGYCSSHWCCKKEVQETRRERRRLMSMEMD | binds
EWI-2wint with the C-terminal FLAG epitope, produced by furin cleavage of EWI-2FLAG^fur in Huh-7 cells (domain or fragment) QAPTSPPRMTVHEGQELALGCLARTSTQKHTHLAVSFGRSVPEAPVGRSTLQEVVGIRSDLAVEAGAPYAERLAAGELRLGKEGTDRYRMVVGGAQAGDAGTYHCTAAEWIQDPDGSWAQIAEKRAVLAHVDVQTLSSQLAVTVGPGERRIGPGEPLELLCNVSGALPPAGRHAAYSVGWEMAPAGAPGPGRLVAQLDTEGVGSLGPGYEGRHIAMEKVASRTYRLRLEAARPGDAGTYRCLAKAYVRGSGTRLREAASARSRPLPVHVREEGVVLEAVAWLAGGTVYRGETASLLCNISVRGGPPGLRLAASWWVERPEDGELSSVPAQLVGGVGQDGVAELGVRPGGGPVSVELVGPRSHRLRLHSLGPEDEGVYHCAPSAWVQHADYSWYQAGSARSGPVTVYPYMHALDTLFVPLLVGTGVALVTGATVLGTITCCFMKRLRKR | binds

From paper PMC2270906, “The CD81 Partner EWI-2wint Inhibits Hepatitis C Virus Entry” (PLoS ONE, 2008)
